Source: publication PMC4336944
These are yes or no findings as the source states them, for the method shown. Binding seen in cells or lysates may run through a third protein. Some results given as binding are weak or reduced against the parent protein; the word gives no strength.

Amino acid sequences for entries named in this document (tags omitted).
UniProt Q12923: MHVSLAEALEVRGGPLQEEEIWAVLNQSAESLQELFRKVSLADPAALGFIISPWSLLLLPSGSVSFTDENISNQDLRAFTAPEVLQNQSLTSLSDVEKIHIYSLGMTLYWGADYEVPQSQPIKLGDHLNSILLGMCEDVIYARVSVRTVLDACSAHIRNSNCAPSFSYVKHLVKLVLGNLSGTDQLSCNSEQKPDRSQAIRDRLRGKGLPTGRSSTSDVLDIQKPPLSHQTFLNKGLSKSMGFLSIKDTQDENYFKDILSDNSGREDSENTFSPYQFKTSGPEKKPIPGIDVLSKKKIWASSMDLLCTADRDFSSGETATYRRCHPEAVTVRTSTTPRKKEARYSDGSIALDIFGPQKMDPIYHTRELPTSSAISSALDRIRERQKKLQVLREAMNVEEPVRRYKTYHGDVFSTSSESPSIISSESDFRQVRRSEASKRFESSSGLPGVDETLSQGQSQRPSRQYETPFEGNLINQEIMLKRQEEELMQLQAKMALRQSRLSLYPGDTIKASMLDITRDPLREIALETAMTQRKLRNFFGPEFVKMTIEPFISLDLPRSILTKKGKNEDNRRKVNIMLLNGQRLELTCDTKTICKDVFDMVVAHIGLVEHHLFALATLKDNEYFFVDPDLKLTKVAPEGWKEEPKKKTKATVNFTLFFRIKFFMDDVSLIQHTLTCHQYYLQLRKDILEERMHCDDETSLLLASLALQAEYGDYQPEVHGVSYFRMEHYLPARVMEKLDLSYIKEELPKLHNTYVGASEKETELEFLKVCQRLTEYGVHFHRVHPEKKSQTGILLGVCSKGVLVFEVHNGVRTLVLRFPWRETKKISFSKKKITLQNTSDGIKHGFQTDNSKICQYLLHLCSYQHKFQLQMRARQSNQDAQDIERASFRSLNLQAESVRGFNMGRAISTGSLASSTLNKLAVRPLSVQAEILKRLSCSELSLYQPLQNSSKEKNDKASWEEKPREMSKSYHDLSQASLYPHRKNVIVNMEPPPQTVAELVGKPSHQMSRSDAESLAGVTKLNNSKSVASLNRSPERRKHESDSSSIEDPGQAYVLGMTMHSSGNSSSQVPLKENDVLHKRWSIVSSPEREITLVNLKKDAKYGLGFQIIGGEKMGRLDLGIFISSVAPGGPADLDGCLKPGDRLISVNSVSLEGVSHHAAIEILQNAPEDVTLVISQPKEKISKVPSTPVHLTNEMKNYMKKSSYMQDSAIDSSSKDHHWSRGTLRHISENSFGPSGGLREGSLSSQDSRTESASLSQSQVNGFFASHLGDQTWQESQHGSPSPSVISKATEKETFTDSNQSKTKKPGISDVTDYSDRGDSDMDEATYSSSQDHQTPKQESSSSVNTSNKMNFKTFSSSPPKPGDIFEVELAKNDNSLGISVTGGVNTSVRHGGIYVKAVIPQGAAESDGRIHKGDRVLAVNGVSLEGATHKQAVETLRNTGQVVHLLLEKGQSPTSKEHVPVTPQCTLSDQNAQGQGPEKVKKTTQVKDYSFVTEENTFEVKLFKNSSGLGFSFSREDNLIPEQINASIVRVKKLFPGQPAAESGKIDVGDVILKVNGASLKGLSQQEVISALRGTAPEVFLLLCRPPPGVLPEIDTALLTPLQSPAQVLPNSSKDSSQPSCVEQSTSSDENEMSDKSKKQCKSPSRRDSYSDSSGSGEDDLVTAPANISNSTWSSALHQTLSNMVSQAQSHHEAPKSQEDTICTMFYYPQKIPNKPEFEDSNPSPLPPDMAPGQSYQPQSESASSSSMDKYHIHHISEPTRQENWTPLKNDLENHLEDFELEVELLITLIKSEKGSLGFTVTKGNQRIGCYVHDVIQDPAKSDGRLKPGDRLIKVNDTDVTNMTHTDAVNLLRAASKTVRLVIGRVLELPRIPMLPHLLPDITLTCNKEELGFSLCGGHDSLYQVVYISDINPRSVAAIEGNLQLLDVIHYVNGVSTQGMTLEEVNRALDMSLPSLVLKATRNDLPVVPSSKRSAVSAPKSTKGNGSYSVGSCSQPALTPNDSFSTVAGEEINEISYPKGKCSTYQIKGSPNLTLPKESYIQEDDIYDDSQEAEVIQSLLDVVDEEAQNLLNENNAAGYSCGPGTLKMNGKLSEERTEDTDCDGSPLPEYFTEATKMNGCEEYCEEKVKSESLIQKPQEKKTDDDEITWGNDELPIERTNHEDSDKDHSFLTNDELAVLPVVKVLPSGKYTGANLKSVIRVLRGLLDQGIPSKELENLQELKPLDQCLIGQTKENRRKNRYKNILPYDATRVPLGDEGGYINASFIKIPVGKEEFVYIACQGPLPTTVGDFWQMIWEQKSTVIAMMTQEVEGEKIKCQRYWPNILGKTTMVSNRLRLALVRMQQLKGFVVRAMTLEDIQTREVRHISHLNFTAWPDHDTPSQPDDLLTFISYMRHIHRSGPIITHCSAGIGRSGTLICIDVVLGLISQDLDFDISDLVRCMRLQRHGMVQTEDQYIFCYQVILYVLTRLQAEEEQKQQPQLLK

Tests used:
[1] = molecular target: T1, Flexi-cloned Halo-TNIP2 (with the C-terminal valine cloning scar), transiently expressed from the CMV promoter (human) (UniProt Q8NFZ5); experiment: pull-down; Halo affinity purification from whole cell extracts of transfected HEK293T cells, TEV eluates analysed by SDS-PAGE and Western blotting (anti-PTPN13, anti-TNIP2, anti-FLAG)
T1 sequence: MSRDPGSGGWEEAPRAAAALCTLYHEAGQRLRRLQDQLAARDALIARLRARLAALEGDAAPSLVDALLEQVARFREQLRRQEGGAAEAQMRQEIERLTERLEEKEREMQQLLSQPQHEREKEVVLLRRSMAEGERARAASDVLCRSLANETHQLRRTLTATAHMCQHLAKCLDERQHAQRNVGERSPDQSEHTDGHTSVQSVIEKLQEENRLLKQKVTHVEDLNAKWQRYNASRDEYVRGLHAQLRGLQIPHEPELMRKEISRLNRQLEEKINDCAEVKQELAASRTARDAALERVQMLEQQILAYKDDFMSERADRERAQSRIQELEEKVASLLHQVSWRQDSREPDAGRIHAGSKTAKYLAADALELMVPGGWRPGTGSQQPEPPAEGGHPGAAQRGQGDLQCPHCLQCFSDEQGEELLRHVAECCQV

[2] = molecular target: T2, Halo-TNIP2 without the C-terminal valine (human) (UniProt Q8NFZ5); experiment: as above
T2 sequence: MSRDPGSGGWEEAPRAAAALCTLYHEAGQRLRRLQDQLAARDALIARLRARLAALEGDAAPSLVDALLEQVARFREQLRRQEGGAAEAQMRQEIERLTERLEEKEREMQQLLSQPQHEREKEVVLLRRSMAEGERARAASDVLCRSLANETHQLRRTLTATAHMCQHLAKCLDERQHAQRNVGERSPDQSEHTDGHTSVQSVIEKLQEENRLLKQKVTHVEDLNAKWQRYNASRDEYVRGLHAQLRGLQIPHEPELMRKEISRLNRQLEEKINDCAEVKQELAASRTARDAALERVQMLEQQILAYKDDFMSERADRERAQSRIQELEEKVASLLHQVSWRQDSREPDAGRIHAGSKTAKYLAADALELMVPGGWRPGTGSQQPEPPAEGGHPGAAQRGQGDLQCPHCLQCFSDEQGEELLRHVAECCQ

PTPN13, endogenous (from UniProt Q12923 1-2485)
binding [1]: binds | binding [2]: no binding
